Test [1] has as its target human CD44 extracellular domain (CD44-ECD, amino acids 21-220), labeled with Fc (human) (UniProt P16070). Description: ELISA; both purified.
Test [2] deals with chondroitin sulfate proteoglycan 4 (CSPG4), soluble receptor protein (UniProt Q6UVK1). The test can be described thus: ELISA; both purified.
Test [3] has as its target CD44 succinylated at lysine 158, endogenous in TcdB/FBD-treated THP-1-Mφ (human (endogenous in THP-1)) (UniProt P16070). Description: co-IP.

Amino acid sequences for entries named in this document (tags omitted). A change or cut given only in a name is not applied to a line headed by its entry. Residues count along the entry.
UniProt P16070: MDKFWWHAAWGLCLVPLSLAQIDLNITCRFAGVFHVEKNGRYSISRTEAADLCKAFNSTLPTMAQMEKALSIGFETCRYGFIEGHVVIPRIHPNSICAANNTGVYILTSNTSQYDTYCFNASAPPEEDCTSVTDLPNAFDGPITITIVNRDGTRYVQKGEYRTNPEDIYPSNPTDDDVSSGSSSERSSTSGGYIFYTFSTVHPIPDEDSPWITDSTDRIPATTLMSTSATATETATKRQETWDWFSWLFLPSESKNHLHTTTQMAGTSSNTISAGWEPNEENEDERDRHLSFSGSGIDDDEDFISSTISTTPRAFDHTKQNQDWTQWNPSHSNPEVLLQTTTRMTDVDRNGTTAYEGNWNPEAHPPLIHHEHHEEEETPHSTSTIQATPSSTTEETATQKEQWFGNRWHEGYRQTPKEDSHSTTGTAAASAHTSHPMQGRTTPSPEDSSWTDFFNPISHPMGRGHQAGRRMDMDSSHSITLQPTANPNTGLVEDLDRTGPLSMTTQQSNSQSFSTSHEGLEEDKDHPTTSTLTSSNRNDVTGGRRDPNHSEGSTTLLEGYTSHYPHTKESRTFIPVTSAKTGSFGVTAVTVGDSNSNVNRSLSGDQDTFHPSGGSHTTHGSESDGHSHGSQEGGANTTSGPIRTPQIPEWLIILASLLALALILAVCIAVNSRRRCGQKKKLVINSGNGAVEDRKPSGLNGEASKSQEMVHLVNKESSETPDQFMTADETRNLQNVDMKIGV
CD44 succinylated at lysine 158, endogenous in TcdB/FBD-treated THP-1-Mφ (human (endogenous in THP-1)): residues 21-742 of P16070
human CD44 extracellular domain (CD44-ECD, amino acids 21-220), labeled with Fc: residues 21-220 of P16070
UniProt Q6UVK1, residues 30-2224: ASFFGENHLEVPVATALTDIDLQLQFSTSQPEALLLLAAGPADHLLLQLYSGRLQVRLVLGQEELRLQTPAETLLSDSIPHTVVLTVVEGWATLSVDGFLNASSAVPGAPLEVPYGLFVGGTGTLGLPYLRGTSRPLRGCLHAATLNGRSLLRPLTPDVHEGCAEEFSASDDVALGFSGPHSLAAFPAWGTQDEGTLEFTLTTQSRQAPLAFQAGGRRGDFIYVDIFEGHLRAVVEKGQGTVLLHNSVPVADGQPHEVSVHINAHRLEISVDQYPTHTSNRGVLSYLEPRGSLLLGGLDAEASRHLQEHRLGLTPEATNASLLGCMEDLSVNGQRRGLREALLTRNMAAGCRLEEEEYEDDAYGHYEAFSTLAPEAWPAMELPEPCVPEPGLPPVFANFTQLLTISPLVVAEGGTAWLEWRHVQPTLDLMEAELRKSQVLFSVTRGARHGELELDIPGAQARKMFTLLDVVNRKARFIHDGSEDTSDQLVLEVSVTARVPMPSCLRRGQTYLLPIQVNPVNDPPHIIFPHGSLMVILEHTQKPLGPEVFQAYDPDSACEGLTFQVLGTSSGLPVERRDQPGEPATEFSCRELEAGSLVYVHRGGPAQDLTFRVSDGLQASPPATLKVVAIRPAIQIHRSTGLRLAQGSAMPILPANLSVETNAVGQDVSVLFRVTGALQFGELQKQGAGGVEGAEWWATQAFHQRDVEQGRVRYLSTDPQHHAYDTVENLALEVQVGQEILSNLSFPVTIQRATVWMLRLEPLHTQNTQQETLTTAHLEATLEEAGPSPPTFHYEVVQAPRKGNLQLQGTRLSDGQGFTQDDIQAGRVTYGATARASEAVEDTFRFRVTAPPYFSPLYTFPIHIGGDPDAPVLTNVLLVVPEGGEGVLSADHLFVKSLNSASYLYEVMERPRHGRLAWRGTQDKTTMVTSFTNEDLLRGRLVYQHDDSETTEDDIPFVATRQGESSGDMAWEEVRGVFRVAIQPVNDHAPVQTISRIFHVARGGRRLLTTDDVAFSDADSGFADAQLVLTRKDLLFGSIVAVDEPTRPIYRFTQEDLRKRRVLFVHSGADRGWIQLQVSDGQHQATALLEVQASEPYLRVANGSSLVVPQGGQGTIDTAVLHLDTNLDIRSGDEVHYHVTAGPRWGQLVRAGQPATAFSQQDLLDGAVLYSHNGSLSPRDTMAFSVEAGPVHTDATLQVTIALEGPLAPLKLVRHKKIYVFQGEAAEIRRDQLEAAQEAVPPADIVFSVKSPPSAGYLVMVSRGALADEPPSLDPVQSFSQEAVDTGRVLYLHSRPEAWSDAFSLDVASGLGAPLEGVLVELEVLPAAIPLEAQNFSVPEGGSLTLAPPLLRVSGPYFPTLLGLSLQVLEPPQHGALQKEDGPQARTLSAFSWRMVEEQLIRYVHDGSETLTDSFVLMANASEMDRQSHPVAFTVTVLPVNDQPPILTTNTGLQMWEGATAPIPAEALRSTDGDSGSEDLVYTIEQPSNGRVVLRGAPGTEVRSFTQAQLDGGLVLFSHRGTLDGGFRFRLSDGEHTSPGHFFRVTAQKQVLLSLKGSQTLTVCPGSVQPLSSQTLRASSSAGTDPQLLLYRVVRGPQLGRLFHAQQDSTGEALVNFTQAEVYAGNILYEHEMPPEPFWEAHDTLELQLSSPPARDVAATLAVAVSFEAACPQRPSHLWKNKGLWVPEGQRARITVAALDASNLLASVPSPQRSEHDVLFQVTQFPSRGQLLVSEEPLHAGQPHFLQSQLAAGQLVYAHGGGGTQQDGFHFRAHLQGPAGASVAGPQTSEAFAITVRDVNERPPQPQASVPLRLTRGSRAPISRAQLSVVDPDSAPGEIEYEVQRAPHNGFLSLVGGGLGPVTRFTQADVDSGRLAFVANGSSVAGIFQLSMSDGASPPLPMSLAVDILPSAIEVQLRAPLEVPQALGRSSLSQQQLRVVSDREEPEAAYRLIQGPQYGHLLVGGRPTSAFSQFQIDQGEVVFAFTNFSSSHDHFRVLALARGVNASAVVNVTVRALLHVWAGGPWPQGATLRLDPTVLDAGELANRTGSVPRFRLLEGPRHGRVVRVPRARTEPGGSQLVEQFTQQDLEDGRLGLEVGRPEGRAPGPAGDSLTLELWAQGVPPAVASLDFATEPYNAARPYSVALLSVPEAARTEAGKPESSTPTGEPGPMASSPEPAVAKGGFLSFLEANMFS
UniProt P18177: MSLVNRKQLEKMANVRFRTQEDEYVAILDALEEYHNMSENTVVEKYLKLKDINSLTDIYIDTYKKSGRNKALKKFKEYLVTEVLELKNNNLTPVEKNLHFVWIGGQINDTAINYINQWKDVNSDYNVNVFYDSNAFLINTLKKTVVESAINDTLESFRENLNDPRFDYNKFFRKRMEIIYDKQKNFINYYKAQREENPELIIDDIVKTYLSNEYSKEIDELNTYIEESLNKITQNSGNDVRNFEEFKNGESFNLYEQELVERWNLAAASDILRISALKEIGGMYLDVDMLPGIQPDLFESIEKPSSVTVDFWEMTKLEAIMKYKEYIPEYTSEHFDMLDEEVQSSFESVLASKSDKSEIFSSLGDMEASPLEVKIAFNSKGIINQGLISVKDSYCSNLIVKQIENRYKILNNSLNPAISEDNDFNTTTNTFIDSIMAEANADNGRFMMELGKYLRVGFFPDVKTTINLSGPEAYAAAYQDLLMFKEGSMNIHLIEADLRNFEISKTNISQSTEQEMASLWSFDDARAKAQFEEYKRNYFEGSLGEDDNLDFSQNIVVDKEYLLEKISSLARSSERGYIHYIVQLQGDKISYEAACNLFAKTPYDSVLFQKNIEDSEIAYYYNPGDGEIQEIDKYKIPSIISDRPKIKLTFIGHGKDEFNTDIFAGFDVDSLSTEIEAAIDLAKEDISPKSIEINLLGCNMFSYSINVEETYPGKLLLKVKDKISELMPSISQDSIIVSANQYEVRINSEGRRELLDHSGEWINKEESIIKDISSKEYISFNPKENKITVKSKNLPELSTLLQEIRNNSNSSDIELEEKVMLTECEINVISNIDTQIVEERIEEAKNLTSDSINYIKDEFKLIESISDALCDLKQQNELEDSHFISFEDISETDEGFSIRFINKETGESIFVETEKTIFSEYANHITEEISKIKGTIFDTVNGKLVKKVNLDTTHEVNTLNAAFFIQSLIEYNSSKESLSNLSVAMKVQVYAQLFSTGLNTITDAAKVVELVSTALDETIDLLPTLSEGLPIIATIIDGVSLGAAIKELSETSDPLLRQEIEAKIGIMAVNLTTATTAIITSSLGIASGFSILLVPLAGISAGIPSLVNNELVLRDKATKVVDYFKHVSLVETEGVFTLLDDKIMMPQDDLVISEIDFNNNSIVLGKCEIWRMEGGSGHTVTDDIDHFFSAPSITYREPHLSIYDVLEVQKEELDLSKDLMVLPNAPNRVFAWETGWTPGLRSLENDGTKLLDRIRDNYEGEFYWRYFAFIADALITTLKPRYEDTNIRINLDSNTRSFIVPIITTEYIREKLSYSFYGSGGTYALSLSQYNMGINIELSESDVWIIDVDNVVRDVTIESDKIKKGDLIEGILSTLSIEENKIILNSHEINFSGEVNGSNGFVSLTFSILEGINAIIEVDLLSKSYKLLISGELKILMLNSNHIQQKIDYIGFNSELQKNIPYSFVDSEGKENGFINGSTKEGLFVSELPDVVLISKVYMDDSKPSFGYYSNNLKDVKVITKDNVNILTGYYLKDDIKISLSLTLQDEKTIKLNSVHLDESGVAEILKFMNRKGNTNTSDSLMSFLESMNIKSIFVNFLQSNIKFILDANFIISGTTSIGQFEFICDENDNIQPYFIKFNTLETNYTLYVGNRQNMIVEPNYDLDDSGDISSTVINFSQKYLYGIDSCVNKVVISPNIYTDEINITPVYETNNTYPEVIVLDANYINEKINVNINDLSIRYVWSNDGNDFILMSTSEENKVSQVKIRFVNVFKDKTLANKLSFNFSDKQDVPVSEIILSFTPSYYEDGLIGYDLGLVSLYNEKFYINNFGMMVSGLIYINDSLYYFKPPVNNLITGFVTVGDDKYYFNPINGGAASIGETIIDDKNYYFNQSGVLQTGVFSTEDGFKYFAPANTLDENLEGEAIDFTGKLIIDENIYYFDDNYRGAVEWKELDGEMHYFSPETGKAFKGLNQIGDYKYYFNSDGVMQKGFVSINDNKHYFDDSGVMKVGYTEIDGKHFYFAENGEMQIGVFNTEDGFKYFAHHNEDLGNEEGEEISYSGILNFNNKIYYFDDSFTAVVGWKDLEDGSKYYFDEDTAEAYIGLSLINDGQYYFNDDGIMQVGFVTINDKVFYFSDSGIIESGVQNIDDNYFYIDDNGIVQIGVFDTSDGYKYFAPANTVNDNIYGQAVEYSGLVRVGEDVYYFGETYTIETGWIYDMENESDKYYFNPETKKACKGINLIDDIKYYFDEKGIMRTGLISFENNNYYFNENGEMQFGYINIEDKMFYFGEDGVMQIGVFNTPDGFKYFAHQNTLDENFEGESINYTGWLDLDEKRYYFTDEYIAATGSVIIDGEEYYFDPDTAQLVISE

No constants are given. Whether binding was seen depends on the method and setting. For part of these data: Binding seen in cells or lysates may run through a third protein. Some results given as binding are weak or reduced against the parent protein; the word gives no strength.

As to “Toxin B (TcdB) from Clostridioides difficile, native full-length (from UniProt P18177 1-2366)”, the binding entry in test [1] and in test [2] was “binds” each time.

B1: SUCLG2, endogenous in THP-1-Mφ (enzyme, UniProt Q96I99 38-432)
chain: LNLQEYQSKKLMSDNGVRVQRFFVADTANEALEAAKRLNAKEIVLKAQILAGGRGKGVFNSGLKGGVHLTKDPNVVGQLAKQMIGYNLATKQTPKEGVKVNKVMVAEALDISRETYLAILMDRSCNGPVLVGSPQGGVDIEEVAASNPELIFKEQIDIFEGIKDSQAQRMAENLGFVGPLKSQAADQITKLYNLFLKIDATQVEVNPFGETPEGQVVCFDAKINFDDNAEFRQKDIFAMDDKSENEPIENEAAKYDLKYIGLDGNIACFVNGAGLAMATCDIIFLNGGKPANFLDLGGGVKEAQVYQAFKLLTADPKVEAILVNIFGGIVNCAIIANGITKACRELELKVPLVVRLEGTNVQEAQKILNNSGLPITSAIDLEDAAKKAVASVAKK
Consider B1, for which, in test [3], the binding entry is reported as “binds”.

The record behind these values is PMC12091907.
